{"source": "PubChem BioAssay AID1259405 (NCATS, 2018)", "test": "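Knock-downs that lift recombinant protein yield in hamster ovary cells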 (primary screen)", "cell system": "Chinese hamster CHO-K1 ovary cells with stable secreted eGFP expression", "reagents": "single siRNA against mouse genes, 0.8 pmol siRNA per well (2 µl of 400 nM stock)", "duration": "3 days", "detection": "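Percent of the per-plate non-targeting control median for intracellular GFP per well by laser scanning cytometry and for cell viability by ATP luminescence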", "direction": "GFP, % of control: higher = more GFP per well, higher productivity; viability (ATP), % of control: higher = more viable cells (more ATP)", "hit rule": "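a knock-down is called active if GFP reaches 120% or more of non-targeting control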", "note": "In all, the deposit lists about 50,000 reagents; this is a random part of them. In the full data, about 4,000 (8%) got an active call. 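Mouse siRNA library applied to hamster cells; one well for each siRNA.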 The numbers tell different reagents against one gene apart."}
{"gene": "Lpp", "siRNA no.": 1, "GFP, % of control": 88.4, "viability (ATP), % of control": 89.1, "Call": "inactive"}
{"gene": "Lpp", "siRNA no.": 2, "GFP, % of control": 96.8, "viability (ATP), % of control": 97.3, "Call": "inactive"}
{"gene": "Tor1a", "siRNA no.": 1, "GFP, % of control": 86.4, "viability (ATP), % of control": 97.4, "Call": "inactive"}
{"gene": "Tor1a", "siRNA no.": 2, "GFP, % of control": 67.4, "viability (ATP), % of control": 61.1, "Call": "inactive"}
{"gene": "Plaat3", "siRNA no.": 1, "GFP, % of control": 85.2, "viability (ATP), % of control": 64.4, "Call": "inactive"}
{"gene": "Plaat3", "siRNA no.": 2, "GFP, % of control": 37.1, "viability (ATP), % of control": 23.9, "Call": "inactive"}
{"gene": "Plaat3", "siRNA no.": 3, "GFP, % of control": 34.8, "viability (ATP), % of control": 48.5, "Call": "inactive"}
{"gene": "Zfp185", "siRNA no.": 1, "GFP, % of control": 126, "viability (ATP), % of control": 86, "Call": "active"}
{"gene": "Zfp185", "siRNA no.": 2, "GFP, % of control": 96.8, "viability (ATP), % of control": 61.6, "Call": "inactive"}
{"gene": "Zfp185", "siRNA no.": 3, "GFP, % of control": 110, "viability (ATP), % of control": 120, "Call": "inactive"}
{"gene": "Zfp456", "siRNA no.": 1, "GFP, % of control": 23.7, "viability (ATP), % of control": 61.2, "Call": "inactive"}
{"gene": "Zfp456", "siRNA no.": 2, "GFP, % of control": 74.5, "viability (ATP), % of control": 76.6, "Call": "inactive"}
{"gene": "Zfp456", "siRNA no.": 3, "GFP, % of control": 97.7, "viability (ATP), % of control": 73, "Call": "inactive"}
{"gene": "Gpat3", "siRNA no.": 1, "GFP, % of control": 53.6, "viability (ATP), % of control": 74.7, "Call": "inactive"}
{"gene": "Gpat3", "siRNA no.": 2, "GFP, % of control": 98.1, "viability (ATP), % of control": 73.2, "Call": "inactive"}
{"gene": "Gpat3", "siRNA no.": 3, "GFP, % of control": 114, "viability (ATP), % of control": 90.7, "Call": "inactive"}

Active calls, among the entries above:
{"gene": "Zfp185", "siRNA no.": 1, "GFP, % of control": 126, "viability (ATP), % of control": 86, "Call": "active"}

Continued.
{"gene": "Ovch2", "siRNA no.": 1, "GFP, % of control": 61.9, "viability (ATP), % of control": 43.8, "Call": "inactive"}
{"gene": "Ovch2", "siRNA no.": 2, "GFP, % of control": 73.6, "viability (ATP), % of control": 83.9, "Call": "inactive"}
{"gene": "Ovch2", "siRNA no.": 3, "GFP, % of control": 86.7, "viability (ATP), % of control": 83.3, "Call": "inactive"}
{"gene": "H1f5", "siRNA no.": 1, "GFP, % of control": 48, "viability (ATP), % of control": 47.9, "Call": "inactive"}
{"gene": "H1f5", "siRNA no.": 2, "GFP, % of control": 115, "viability (ATP), % of control": 97.4, "Call": "inactive"}
{"gene": "H1f5", "siRNA no.": 3, "GFP, % of control": 26.6, "viability (ATP), % of control": 57.7, "Call": "inactive"}
{"gene": "Zfp865", "siRNA no.": 1, "GFP, % of control": 44.8, "viability (ATP), % of control": 27.3, "Call": "inactive"}
{"gene": "Zfp865", "siRNA no.": 2, "GFP, % of control": 66.4, "viability (ATP), % of control": 66.5, "Call": "inactive"}
{"gene": "Zfp865", "siRNA no.": 3, "GFP, % of control": 70.7, "viability (ATP), % of control": 99.9, "Call": "inactive"}
{"gene": "C1qtnf12", "siRNA no.": 1, "GFP, % of control": 109, "viability (ATP), % of control": 87.9, "Call": "inactive"}
{"gene": "C1qtnf12", "siRNA no.": 2, "GFP, % of control": 101, "viability (ATP), % of control": 70.1, "Call": "inactive"}
{"gene": "C1qtnf12", "siRNA no.": 3, "GFP, % of control": 69.7, "viability (ATP), % of control": 64.2, "Call": "inactive"}
{"gene": "Lgals12", "siRNA no.": 1, "GFP, % of control": 88.9, "viability (ATP), % of control": 63.6, "Call": "inactive"}
{"gene": "Lgals12", "siRNA no.": 2, "GFP, % of control": 114, "viability (ATP), % of control": 68.3, "Call": "inactive"}
{"gene": "Lgals12", "siRNA no.": 3, "GFP, % of control": 41, "viability (ATP), % of control": 63.1, "Call": "inactive"}
{"gene": "Prss27", "siRNA no.": 1, "GFP, % of control": 85.4, "viability (ATP), % of control": 102, "Call": "inactive"}
{"gene": "Prss27", "siRNA no.": 2, "GFP, % of control": 69.5, "viability (ATP), % of control": 36.5, "Call": "inactive"}
{"gene": "Prss27", "siRNA no.": 3, "GFP, % of control": 52.7, "viability (ATP), % of control": 58, "Call": "inactive"}
{"gene": "Tmx3", "siRNA no.": 1, "GFP, % of control": 85.5, "viability (ATP), % of control": 122, "Call": "inactive"}
{"gene": "Tmx3", "siRNA no.": 2, "GFP, % of control": 50.7, "viability (ATP), % of control": 64.6, "Call": "inactive"}
{"gene": "Tmx3", "siRNA no.": 3, "GFP, % of control": 44.1, "viability (ATP), % of control": 54.5, "Call": "inactive"}
{"gene": "Atp9a", "siRNA no.": 1, "GFP, % of control": 84.2, "viability (ATP), % of control": 85.8, "Call": "inactive"}
{"gene": "Atp9a", "siRNA no.": 2, "GFP, % of control": 73.7, "viability (ATP), % of control": 81.9, "Call": "inactive"}
{"gene": "Atp9a", "siRNA no.": 3, "GFP, % of control": 60.2, "viability (ATP), % of control": 66.4, "Call": "inactive"}
